Measurements as given in patent publication US20190112361A1.
Results are given in words; binding and its absence hold for the method and conditions named. Some entries that bind do so weakly or less than the wild type.

By UniProt entry, the sequences of proteins in these tests, tags left out. Where a name states a change or a piece, a line headed by the entry shows the natural chain unless it says otherwise. Chains listed by the source or under a name are the forms on record and can include a tag or linker.
UniProt P10636: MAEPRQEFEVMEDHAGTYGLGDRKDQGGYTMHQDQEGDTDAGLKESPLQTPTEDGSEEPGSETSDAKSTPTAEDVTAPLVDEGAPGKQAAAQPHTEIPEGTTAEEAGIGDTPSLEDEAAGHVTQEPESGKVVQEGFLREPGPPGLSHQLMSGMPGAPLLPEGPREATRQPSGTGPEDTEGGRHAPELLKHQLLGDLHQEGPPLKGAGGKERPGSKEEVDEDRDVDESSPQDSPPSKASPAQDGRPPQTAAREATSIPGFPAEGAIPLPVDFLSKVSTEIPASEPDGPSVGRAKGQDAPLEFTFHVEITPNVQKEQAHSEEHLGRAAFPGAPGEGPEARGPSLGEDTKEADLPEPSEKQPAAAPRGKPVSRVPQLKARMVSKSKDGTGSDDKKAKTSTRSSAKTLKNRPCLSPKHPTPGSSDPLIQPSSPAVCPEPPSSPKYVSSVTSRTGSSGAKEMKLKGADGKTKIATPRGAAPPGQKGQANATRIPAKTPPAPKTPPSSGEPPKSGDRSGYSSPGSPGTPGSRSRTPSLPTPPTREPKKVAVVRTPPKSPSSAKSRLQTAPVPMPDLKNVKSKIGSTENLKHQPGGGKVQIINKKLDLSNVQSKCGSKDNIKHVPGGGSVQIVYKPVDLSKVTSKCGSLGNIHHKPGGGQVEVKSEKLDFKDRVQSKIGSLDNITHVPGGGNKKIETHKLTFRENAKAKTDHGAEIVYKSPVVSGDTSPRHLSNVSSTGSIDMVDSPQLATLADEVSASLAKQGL
human Tau monomer (recombinant 2N4R isoform, amino acids 2-441) (P10636, form named): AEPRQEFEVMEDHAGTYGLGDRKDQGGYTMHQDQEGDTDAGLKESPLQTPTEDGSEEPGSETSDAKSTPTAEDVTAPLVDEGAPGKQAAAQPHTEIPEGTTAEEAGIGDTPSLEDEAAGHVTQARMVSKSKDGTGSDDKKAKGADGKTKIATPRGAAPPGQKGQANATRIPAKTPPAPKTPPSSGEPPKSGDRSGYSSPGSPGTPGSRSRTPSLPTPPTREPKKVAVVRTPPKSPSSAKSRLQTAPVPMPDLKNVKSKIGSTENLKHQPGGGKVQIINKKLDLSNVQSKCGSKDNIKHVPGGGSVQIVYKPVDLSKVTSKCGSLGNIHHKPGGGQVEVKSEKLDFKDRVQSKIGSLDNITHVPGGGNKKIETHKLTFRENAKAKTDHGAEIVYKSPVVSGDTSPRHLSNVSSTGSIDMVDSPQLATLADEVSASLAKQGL

Legend:
46-60 (human) = 46-60 (human) (UniProt P10636); assay: ELISA on Tau peptides (Example 8)
[1] = target: phosphorylated Tau (pTau) (human) (UniProt P10636); assay: direct ELISA, pTau coated at 1 µg/mL, hybridoma supernatant dilutions
[2] = target: full-length human Tau (flTau) (human) (UniProt P10636); assay: direct ELISA, flTau coated at 1 µg/mL, hybridoma supernatant dilutions
[3] = target: human Tau monomer (recombinant 2N4R isoform, amino acids 2-441) (human) (UniProt P10636); assay: capture ELISA, antibody on anti-IgG plate, biotinylated monomeric Tau titrated

Binder	binding (46-60 (human))	other results
3A4-H4 (antibody, mouse IgG2a, V domains shown) VH: EVQLVESGGDLVKPGGSLKLSCAASGFTFSSYGMSWVRQTPDKRLEWVATISSGGTYTYYPDSVKGRFTISRDNAKNTLYLQMSSLKSEDTAMYFCATSYDGAMDYWGQGTSVTVSS VL: DVLMTQTPLSLPVSLGDQASISCRSSQNIVHSNGNTYLEWYLQKPGQSPKLLIYKVSNRFSGVPDRFSGSGSGTDFTLKISRVEAEDLGVYYCFQGTLVPWTFGGGTKLEIK	no binding (tested: not shown on the sheet)	
123E9-A1 (antibody, mouse IgG2a, V domains shown) VH: EVQLQQSGPELVKPGASVKMSCKASGYTFTDYYMKWVKQSHGKSLEWIGDIDPNNGGTSYNQKFKGKATLTVDKSSSTAYMQLNSLTSEDSAVYYCARSAGFGDSFSFWGLGTLVTVSA VL: DVLMTQTPLSLPVSLGDQASISCRSSQSIVHSNGNTYLEWYLQKPGQSPKLLIYKVSNRFSGVPDRFSGSGSGTDFTLKISRVEAEDLGFYYCFQGSHVPPTFGGGTKLEIK	no binding (tested: not shown on the sheet)	
37D3-H9 (antibody, mouse IgG2a, V domains shown) VH: EVQLVESGGDLAKPGGSLKLSCTASGLIFRSYGMSWVRQTPDKRLEWVATINSGGTYTYYPDSVKGRFTISRDNAKNTLYLQMSSLKSEDTAMYYCANSYSGAMDYWGQGTSVTVSS VL: DDLLTQTPLSLPVSLGDPASISCRSSQSIVHSNGNTYFEWYLQKPGQSPKLLIYKVSNRFSGVPDRFSGSGSGTDFTLKISRVEAEDLGVYYCFQGSLVPWTFGGGTKLEIK	no binding (tested: not shown on the sheet)	
19H6-F7 (antibody, mouse IgG2a, V domains shown) VH: EVQLVESGGDLVKPGGSLKLSCAASGFTFSSYGMSWVRQTPDKRLEWVATISSGGTYTYYPDSVKGRFTISRDNAKNTLYLQMSSLKSEDTAMYYCAPSYDGAMDYWGQGTSVTVSS VL: DVLMTQTPLSLPVSLGDQASISCRSSQSIVHSNGNTYLEWYLQKPGQSPKLLIYKVSNRFSGVPDRFSGSGSGTDFTLKISRVEAEDLGVYYCFQGSLVPWTFGGGTKLEIK	no binding (tested: not shown on the sheet)	
89F4-A1 (antibody, mouse IgG2a, V domains shown) VH: EVQLVESGGGLVQPKGSLKLSCAASGFTFNTYAMNWVRQAPGKGLEWVARIRSKSNNYAAYFADSVKDRFTISRDDSQTMLYLQMNNLKSEDTAMYYCVSGGNYVPFAYWGQGTLVTVSA VL: NIMMTQSPSSLAVSAGEKVTMSCKSSQSVFYSSEQRNYLAWYQQKPGQSPKLLISWASTRESGVPDRFTGSGSGTDFTLTISSVQGEDLAVYYCHQYLSSFTFGSGTKLEIK	no binding (tested: not shown on the sheet)	
52F6-F11 (antibody, V domains shown) VH: QVQLQQSGTELAKPGASVKLSCKASGYTFTHYWMHWIKQRPGQGLEWIGYIYPTNDYTKYNQNFRDKATLTADESSNSAYMQLNSLTYEDSAVYYCARAGNRVFDFWGQGTTLTVSS VL: QAVVTQESALTTSPGETVTLTCRSSTGAVTTSNFANWVQEKPDHLFTGLIGGTNNRAPGVPARFSGSLIGDKAALTITGAQTEDEAIYFCALWYSNLWVFGGGTKLTVL		binding [1]: binds; binding [2]: binds; binding [3]: binds
